{"source": "PubChem BioAssay AID504808, Drosophila RNAi Screening Center – 2011", "test": "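Fly genes required to hold E2F transcription in check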 (primary screen)", "system": "Drosophila S2 cells", "reagents": "long dsRNA against Drosophila genes", "read-out": "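Dual luciferase plate measurements; E2F-specific signal taken as firefly over Renilla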", "direction": "E2F firefly: higher = more E2F reporter activity; Renilla normaliser: higher = more normaliser reporter signal", "hit rule": "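a knock-down counted as active when the firefly/Renilla E2F signal rose above 50%, a threshold chosen arbitrarily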", "note": "The screen tested about 21,000 reagents; this is an unselected part of those that have a named target and a result. In the full data, 18 (0.084%) were called active. 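Raw counts without plate normalisation, one of two replicates; the ratio scores behind the calls were not deposited.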 Reagent sequences are not shown. The record does not give: the amount of reagent, the time to read-out."}
{"gene": "CG32249", "amplicon": "DRSC08101", "E2F firefly, rep 1": 1.31e5, "Renilla normaliser, rep 1": 4594, "outcome": "inactive"}
{"gene": "CG32249", "amplicon": "DRSC08177", "E2F firefly, rep 1": 85435, "Renilla normaliser, rep 1": 3748, "outcome": "inactive"}
{"gene": "CG7264", "amplicon": "DRSC10793", "E2F firefly, rep 1": 1.13e5, "Renilla normaliser, rep 1": 6522, "outcome": "inactive"}
{"gene": "CG2202", "amplicon": "DRSC19841", "E2F firefly, rep 1": 71190, "Renilla normaliser, rep 1": 768, "outcome": "inactive"}
{"gene": "Spn31A", "amplicon": "DRSC02780", "E2F firefly, rep 1": 1.55e5, "Renilla normaliser, rep 1": 5585, "outcome": "inactive"}
{"gene": "RfC4", "amplicon": "DRSC08691", "E2F firefly, rep 1": 65650, "Renilla normaliser, rep 1": 3463, "outcome": "inactive"}
{"gene": "Mlh1", "amplicon": "DRSC07473", "E2F firefly, rep 1": 2725, "Renilla normaliser, rep 1": 183, "outcome": "inactive"}
{"gene": "CG43707", "amplicon": "DRSC00280", "E2F firefly, rep 1": 1.30e5, "Renilla normaliser, rep 1": 4930, "outcome": "inactive"}
{"gene": "Tsp42Ek", "amplicon": "DRSC06187", "E2F firefly, rep 1": 1.38e5, "Renilla normaliser, rep 1": 4737, "outcome": "inactive"}
{"gene": "Oat", "amplicon": "DRSC11043", "E2F firefly, rep 1": 74970, "Renilla normaliser, rep 1": 3765, "outcome": "inactive"}
{"gene": "polo", "amplicon": "DRSC11384", "E2F firefly, rep 1": 75762, "Renilla normaliser, rep 1": 3413, "outcome": "inactive"}
{"gene": "CR11235", "amplicon": "DRSC20480", "E2F firefly, rep 1": 1.34e5, "Renilla normaliser, rep 1": 5640, "outcome": "inactive"}
{"gene": "CG6650", "amplicon": "DRSC10685", "E2F firefly, rep 1": 86095, "Renilla normaliser, rep 1": 3420, "outcome": "inactive"}
{"gene": "CG15646", "amplicon": "DRSC19682", "E2F firefly, rep 1": 2.03e5, "Renilla normaliser, rep 1": 6311, "outcome": "inactive"}
{"gene": "Alp7", "amplicon": "DRSC04355", "E2F firefly, rep 1": 1.01e5, "Renilla normaliser, rep 1": 3637, "outcome": "inactive"}
{"gene": "CG15909", "amplicon": "DRSC04977", "E2F firefly, rep 1": 92255, "Renilla normaliser, rep 1": 4137, "outcome": "inactive"}
{"gene": "CG15423", "amplicon": "DRSC00437", "E2F firefly, rep 1": 1.42e5, "Renilla normaliser, rep 1": 4991, "outcome": "inactive"}
{"gene": "CG2854", "amplicon": "DRSC18595", "E2F firefly, rep 1": 1.16e5, "Renilla normaliser, rep 1": 4858, "outcome": "inactive"}
{"gene": "LManI", "amplicon": "DRSC02838", "E2F firefly, rep 1": 1.46e5, "Renilla normaliser, rep 1": 5658, "outcome": "inactive"}
{"gene": "chn", "amplicon": "DRSC06086", "E2F firefly, rep 1": 2992, "Renilla normaliser, rep 1": 204, "outcome": "inactive"}
{"gene": "Rbp4", "amplicon": "DRSC16818", "E2F firefly, rep 1": 1.12e5, "Renilla normaliser, rep 1": 7149, "outcome": "inactive"}
{"gene": "Jon99Ci", "amplicon": "DRSC16860", "E2F firefly, rep 1": 1.23e5, "Renilla normaliser, rep 1": 6940, "outcome": "inactive"}
{"gene": "sinu", "amplicon": "DRSC09752", "E2F firefly, rep 1": 59680, "Renilla normaliser, rep 1": 3281, "outcome": "inactive"}
{"gene": "Sgs5bis", "amplicon": "DRSC16263", "E2F firefly, rep 1": 96688, "Renilla normaliser, rep 1": 4962, "outcome": "inactive"}
{"gene": "CG34012", "amplicon": "DRSC09089", "E2F firefly, rep 1": 1.24e5, "Renilla normaliser, rep 1": 4549, "outcome": "inactive"}
{"gene": "Fbp2", "amplicon": "DRSC03327", "E2F firefly, rep 1": 75315, "Renilla normaliser, rep 1": 3079, "outcome": "inactive"}
{"gene": "Npc1b", "amplicon": "DRSC20488", "E2F firefly, rep 1": 1.31e5, "Renilla normaliser, rep 1": 7264, "outcome": "inactive"}
{"gene": "Prestin", "amplicon": "DRSC10507", "E2F firefly, rep 1": 1.20e5, "Renilla normaliser, rep 1": 6449, "outcome": "inactive"}
{"gene": "CG5541", "amplicon": "DRSC19946", "E2F firefly, rep 1": 8043, "Renilla normaliser, rep 1": 708, "outcome": "inactive"}
{"gene": "HisCl1", "amplicon": "DRSC14945", "E2F firefly, rep 1": 61753, "Renilla normaliser, rep 1": 3322, "outcome": "inactive"}
{"gene": "Kap-alpha1", "amplicon": "DRSC11356", "E2F firefly, rep 1": 1.17e5, "Renilla normaliser, rep 1": 7164, "outcome": "inactive"}
{"gene": "Grx1t", "amplicon": "DRSC04530", "E2F firefly, rep 1": 92659, "Renilla normaliser, rep 1": 3929, "outcome": "inactive"}
{"gene": "esn", "amplicon": "DRSC05039", "E2F firefly, rep 1": 1.45e5, "Renilla normaliser, rep 1": 5887, "outcome": "inactive"}
{"gene": "esn", "amplicon": "DRSC07612", "E2F firefly, rep 1": 1.41e5, "Renilla normaliser, rep 1": 5204, "outcome": "inactive"}
{"gene": "dop", "amplicon": "DRSC10655", "E2F firefly, rep 1": 57948, "Renilla normaliser, rep 1": 3549, "outcome": "inactive"}
{"gene": "CG8531", "amplicon": "DRSC07209", "E2F firefly, rep 1": 2932, "Renilla normaliser, rep 1": 240, "outcome": "inactive"}

Entries above whose gene name starts with R or r (2):
{"gene": "RfC4", "amplicon": "DRSC08691", "E2F firefly, rep 1": 65650, "Renilla normaliser, rep 1": 3463, "outcome": "inactive"}
{"gene": "Rbp4", "amplicon": "DRSC16818", "E2F firefly, rep 1": 1.12e5, "Renilla normaliser, rep 1": 7149, "outcome": "inactive"}
